These are yes or no findings as the source states them, for the method shown. Some results given as binding are weak or reduced against the parent protein; the word gives no strength. For part of these data: Sequences can lack the tags named with a protein.
How the values were obtained:
[1] = molecular target: Fas1, C-terminally Twin-StrepII tagged (S. cerevisiae) (UniProt P07149); assay: RIP-qPCR
[2] = molecular target: Fas1, C-terminally Twin-StrepII tagged (S. cerevisiae) (UniProt P07149); assay: selective ribosome profiling
[3] = molecular target: Nup116, C-terminally Twin-StrepII tagged (S. cerevisiae) (UniProt Q02630); assay: RIP-qPCR
[4] = molecular target: T1, Gle2, C-terminally Twin-StrepII tagged (S. cerevisiae) (UniProt P40066); assay: RIP-qPCR
T1 sequence: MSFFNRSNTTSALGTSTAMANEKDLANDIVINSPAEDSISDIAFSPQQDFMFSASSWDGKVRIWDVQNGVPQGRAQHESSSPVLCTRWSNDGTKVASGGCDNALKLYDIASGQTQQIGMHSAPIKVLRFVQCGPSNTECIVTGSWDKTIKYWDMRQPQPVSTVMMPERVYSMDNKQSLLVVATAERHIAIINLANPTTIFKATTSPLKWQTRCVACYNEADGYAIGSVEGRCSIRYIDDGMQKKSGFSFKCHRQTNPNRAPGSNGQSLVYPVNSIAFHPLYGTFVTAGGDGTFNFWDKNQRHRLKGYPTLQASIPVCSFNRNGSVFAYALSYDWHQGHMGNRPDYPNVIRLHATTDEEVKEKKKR

Protein sequences, listed by entry. Tags and fused reporters are not part of them. Residues count along the entry.
UniProt Q02630: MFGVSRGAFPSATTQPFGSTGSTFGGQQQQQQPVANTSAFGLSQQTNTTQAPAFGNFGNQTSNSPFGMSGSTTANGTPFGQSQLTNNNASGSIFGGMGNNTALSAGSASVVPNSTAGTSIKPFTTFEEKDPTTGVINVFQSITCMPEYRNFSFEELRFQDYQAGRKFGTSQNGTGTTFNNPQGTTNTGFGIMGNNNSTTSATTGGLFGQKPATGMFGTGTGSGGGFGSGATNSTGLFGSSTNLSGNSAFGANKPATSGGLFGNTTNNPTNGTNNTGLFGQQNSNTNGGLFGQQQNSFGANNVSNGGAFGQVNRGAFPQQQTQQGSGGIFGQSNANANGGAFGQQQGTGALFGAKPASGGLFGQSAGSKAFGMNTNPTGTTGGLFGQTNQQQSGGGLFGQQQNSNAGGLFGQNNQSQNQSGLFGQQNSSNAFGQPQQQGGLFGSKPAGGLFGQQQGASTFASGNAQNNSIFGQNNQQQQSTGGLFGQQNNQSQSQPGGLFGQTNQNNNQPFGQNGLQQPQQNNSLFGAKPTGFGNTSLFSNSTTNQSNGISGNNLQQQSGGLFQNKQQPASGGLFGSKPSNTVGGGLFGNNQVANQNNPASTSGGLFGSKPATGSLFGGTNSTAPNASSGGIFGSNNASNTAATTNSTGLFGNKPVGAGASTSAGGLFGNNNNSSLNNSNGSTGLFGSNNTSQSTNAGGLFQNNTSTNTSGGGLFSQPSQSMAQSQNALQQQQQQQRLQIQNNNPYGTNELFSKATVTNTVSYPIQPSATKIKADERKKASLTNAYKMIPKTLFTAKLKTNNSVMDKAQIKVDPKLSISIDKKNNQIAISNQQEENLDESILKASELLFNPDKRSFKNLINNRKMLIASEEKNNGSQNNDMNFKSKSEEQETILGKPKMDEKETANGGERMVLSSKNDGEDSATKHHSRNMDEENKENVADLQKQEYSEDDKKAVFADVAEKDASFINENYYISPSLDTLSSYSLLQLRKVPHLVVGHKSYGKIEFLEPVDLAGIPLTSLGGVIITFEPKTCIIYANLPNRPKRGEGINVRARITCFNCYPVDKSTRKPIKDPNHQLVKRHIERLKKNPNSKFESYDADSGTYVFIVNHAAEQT
UniProt P40064: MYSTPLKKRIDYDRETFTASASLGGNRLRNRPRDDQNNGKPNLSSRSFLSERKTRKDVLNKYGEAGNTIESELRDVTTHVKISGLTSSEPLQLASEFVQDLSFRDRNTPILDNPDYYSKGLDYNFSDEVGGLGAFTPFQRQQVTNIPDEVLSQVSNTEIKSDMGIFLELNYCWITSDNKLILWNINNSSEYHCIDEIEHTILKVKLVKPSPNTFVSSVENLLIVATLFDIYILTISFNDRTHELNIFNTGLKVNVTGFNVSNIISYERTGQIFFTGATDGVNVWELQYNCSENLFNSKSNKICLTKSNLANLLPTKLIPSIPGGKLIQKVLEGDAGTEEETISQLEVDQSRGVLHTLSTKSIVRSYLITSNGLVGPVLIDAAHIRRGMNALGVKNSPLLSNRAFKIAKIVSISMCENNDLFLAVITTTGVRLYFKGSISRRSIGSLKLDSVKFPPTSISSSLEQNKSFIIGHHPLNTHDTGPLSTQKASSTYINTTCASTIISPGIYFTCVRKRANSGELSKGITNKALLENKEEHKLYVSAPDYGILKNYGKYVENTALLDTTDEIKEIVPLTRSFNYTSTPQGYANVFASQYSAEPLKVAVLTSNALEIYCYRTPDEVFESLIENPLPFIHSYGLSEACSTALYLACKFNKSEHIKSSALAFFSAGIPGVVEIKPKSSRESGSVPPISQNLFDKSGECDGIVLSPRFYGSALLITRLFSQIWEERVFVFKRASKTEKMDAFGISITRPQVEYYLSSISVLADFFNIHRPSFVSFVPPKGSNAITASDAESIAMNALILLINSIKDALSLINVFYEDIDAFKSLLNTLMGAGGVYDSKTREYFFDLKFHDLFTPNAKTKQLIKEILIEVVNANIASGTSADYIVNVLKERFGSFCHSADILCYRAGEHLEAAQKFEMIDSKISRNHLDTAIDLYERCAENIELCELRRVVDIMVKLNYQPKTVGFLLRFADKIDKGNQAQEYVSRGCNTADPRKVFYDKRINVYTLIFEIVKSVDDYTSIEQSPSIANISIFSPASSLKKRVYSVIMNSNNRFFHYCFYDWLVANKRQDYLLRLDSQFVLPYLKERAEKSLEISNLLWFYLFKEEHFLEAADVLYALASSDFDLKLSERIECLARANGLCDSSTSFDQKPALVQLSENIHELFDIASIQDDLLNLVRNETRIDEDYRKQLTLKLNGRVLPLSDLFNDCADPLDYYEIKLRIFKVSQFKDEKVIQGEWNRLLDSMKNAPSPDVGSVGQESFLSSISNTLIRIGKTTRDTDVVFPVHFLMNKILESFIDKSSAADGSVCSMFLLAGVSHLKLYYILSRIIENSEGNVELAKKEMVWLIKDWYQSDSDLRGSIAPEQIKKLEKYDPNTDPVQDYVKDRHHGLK
UniProt P40368: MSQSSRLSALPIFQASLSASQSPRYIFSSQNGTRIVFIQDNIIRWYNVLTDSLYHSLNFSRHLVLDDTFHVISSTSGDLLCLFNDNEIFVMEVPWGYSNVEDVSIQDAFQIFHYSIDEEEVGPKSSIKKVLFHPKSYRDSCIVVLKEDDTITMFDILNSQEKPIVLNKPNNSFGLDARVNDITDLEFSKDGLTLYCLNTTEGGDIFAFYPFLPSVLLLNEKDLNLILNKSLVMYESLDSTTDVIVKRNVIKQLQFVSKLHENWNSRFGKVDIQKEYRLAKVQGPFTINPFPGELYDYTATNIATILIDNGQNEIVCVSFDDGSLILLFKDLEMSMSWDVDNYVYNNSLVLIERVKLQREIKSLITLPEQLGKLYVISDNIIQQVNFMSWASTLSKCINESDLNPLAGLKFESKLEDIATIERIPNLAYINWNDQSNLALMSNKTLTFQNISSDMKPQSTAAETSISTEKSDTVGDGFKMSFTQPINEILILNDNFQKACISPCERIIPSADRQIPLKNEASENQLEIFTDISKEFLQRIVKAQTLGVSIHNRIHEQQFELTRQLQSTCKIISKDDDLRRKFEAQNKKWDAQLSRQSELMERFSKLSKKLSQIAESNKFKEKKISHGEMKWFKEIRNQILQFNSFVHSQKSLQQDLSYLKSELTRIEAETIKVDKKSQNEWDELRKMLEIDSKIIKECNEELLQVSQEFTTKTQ
UniProt P49687, residues 1-605: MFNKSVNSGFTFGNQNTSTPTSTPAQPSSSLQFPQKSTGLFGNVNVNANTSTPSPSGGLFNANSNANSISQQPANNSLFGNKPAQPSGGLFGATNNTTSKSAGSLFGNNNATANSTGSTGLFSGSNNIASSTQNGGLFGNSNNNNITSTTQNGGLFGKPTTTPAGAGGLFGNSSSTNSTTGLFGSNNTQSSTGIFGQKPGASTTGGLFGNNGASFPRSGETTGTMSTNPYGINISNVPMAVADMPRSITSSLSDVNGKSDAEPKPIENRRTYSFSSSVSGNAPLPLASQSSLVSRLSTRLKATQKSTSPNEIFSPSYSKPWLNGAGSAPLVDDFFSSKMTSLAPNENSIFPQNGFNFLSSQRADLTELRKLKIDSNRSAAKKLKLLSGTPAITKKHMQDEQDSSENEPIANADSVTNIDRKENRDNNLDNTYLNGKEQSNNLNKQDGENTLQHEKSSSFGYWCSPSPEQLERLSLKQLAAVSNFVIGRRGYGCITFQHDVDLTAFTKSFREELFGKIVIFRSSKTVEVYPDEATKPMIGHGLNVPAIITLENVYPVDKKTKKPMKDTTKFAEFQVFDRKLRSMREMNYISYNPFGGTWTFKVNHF
UniProt P38181: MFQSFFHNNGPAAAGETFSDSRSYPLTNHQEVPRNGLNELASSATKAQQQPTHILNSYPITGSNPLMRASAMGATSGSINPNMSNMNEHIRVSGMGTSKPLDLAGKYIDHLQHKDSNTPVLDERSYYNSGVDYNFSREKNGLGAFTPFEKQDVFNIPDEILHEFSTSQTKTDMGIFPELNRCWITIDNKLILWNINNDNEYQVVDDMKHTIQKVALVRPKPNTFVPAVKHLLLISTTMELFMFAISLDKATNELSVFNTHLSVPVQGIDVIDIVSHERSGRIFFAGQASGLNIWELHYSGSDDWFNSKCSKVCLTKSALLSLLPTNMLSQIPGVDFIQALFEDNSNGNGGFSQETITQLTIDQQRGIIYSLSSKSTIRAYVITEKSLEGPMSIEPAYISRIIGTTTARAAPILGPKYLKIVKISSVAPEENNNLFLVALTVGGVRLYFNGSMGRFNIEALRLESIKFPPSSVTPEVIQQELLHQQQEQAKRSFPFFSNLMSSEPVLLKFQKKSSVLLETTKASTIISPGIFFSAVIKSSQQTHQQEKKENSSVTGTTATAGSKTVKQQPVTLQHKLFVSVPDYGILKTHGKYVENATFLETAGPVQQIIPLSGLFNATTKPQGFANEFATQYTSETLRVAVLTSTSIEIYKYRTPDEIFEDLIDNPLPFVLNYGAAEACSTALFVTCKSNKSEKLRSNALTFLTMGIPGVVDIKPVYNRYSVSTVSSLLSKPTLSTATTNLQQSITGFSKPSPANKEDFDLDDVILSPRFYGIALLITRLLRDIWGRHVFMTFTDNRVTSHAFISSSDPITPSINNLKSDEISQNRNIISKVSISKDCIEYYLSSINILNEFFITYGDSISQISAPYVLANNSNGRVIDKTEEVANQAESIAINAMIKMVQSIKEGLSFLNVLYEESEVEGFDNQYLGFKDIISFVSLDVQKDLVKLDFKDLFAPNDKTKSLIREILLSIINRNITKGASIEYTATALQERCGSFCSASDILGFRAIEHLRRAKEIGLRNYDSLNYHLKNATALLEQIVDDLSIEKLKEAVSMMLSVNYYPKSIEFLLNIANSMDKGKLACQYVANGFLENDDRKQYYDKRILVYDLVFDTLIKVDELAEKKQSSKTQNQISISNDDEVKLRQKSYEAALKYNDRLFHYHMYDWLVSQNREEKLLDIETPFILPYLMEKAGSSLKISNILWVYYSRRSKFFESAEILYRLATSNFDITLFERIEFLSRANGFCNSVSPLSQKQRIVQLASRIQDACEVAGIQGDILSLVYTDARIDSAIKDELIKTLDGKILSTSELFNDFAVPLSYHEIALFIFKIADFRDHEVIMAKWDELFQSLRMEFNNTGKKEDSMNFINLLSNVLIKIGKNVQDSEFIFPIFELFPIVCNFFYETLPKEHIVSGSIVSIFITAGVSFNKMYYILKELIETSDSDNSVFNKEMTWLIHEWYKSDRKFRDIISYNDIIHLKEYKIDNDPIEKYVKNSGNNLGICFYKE

[5] = molecular target: Nup157, C-terminally Twin-StrepII tagged (S. cerevisiae) (UniProt P40064); assay: RIP-qPCR
[6] = molecular target: T2, Nup53, C-terminally Twin-StrepII tagged (S. cerevisiae) (UniProt Q03790); assay: RIP-qPCR
T2 sequence: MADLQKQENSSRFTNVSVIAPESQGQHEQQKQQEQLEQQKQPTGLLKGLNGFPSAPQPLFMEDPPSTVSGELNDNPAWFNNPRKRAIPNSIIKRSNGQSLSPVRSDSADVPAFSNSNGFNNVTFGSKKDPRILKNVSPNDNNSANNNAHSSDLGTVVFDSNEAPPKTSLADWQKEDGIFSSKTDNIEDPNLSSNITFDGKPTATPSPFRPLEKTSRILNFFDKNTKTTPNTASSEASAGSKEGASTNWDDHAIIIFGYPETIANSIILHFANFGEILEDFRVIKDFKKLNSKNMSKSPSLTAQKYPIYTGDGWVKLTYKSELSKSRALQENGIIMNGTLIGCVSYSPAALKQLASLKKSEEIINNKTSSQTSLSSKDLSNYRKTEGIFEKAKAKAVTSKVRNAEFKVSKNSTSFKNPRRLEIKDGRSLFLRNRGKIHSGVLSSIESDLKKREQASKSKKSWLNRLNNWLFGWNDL

Substance: Fas2 (from UniProt P19097 1-1887)
- binding [1]: binds
- binding [2]: binds

Substance: Nup82 (from UniProt P40368 1-713)
- binding [3]: binds

Substance: Nup116 (from UniProt Q02630 1-1113)
- binding [4]: binds

Substance: Nup145N (from UniProt P49687 1-605)
- binding [5]: binds weakly

Substance: Nup170 (from UniProt P38181 1-1502)
- binding [6]: binds
